Reference: patent US6380156B1 (The Board of Trustees of the University of Illnois, priority 1996, dated 2002)
Some peptides are written in HELM: one residue between dots, names in brackets for other building blocks, links after the first $.

Assay: general procedure: solution-phase peptide synthesis; DCC; EDCI/HOBT/N-methylmorpholine

## H-Ist-Aip-Leu-Pro-OTMSe
Late stage modification step
  step yield: 87%

## Boc-Ist-Aip-Leu-Pro-OTMSe
Coupling step
  step yield: 83%

## PEPTIDE1{[Cbz].[D-MeLeu].T.[Ist].[Aip].L.P.[Me2Tyr]}$PEPTIDE1,PEPTIDE1,3:R3-8:R2$$$V2.0
Cyclisation step, on linear precursor
  cyclisation yield: 40%
